From article PMC7819943, “Rice protein-binding microarrays: a tool to detect cis-acting elements near promoter regions in rice”
Some of the results follow.

The chains behind the UniProt entries cited, without tags or fusion partners.
UniProt Q0JBA9, entry or part of it: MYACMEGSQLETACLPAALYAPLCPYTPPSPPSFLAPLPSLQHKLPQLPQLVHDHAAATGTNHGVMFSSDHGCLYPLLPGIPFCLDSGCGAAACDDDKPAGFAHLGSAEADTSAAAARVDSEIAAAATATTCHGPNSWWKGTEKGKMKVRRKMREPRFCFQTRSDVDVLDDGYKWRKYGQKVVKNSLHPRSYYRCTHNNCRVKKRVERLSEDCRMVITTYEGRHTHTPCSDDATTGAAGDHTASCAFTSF

target: OsWRKY34 (Oryza sativa, UniProt Q0JBA9 1-250); experiment: protein-binding microarray (RPBM); PBS, 2% BSA, 51.3 ng/ul salmon testes DNA, 50 uM zinc acetate, 200 nM TF, 25 C, 1 h; high values mean tight binding; settings: protein: recombinant; tags: N-terminal polyhistidine and DsRed monomer fusion (pET32a); label: CyDye5-dUTP incorporated in the synthesized complementary strand; 3' TTTTT single-stranded linker to array surface; dsDNA, one strand shown
In short: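 The binding signal is fluorescence intensity per feature, in arbitrary units, read on an Axon 4000B scanner. Polyhistidine- and DsRed-tagged transcription factors (N-terminal fusions) from E. coli BL21-CodonPlus were purified on Ni–NTA and applied at 200 nM for 1 h at 25 °C to a double-stranded, BSA-blocked custom Agilent array in buffer with 50 µM zinc acetate.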

Sequence	binding signal
GCTCAGCTACTCATCACCACACACGCACAGTAGCTTAGCACGGAGTCACCTAGTGCAG	8760 fluorescence intensity (a.u.)
CATTCTTGTCTGTAGCTTATTTGTTCGTGTTCATTAGTTTCGGAGTCACCTAGTGCAG	13500 fluorescence intensity (a.u.)
GTTATGGGTTTGATTTTTTTTCGTTTAGAAAGTTATGGGTCGGAGTCACCTAGTGCAG	9220 fluorescence intensity (a.u.)
GGGCTGGGGAAAATGATCGACTACTTTTAACCATTTCAGTCGGAGTCACCTAGTGCAG	8200 fluorescence intensity (a.u.)
GCAGTCCAAGTCCAAGTCCAAGTCCAAGCGCTAATAAATTCGGAGTCACCTAGTGCAG	8440 fluorescence intensity (a.u.)
TCTTTTTTTTTTTTTTTTGCTTCTGATCATGCAAAGCACCCGGAGTCACCTAGTGCAG	8150 fluorescence intensity (a.u.)
CTACCATCCGTCGCGGCCGGCCCCATCCCTCATGTGCGACCGGAGTCACCTAGTGCAG	12400 fluorescence intensity (a.u.)
CGACTGTTGATTTCGTGAATCCTTTTAATGCAGCCTCGTACGGAGTCACCTAGTGCAG	10300 fluorescence intensity (a.u.)
CCGCCTCGAGTCCGTCCGTCGCTTCCTCTCTCTCTACTTGCGGAGTCACCTAGTGCAG	8540 fluorescence intensity (a.u.)
TAGGGTCATGAATTAGATTTGGGTCACTTTTAAGGAAGTCCGGAGTCACCTAGTGCAG	8060 fluorescence intensity (a.u.)
GATTTTGAGTTTTTTTCTTGCAACATTTGACCACTCATCTCGGAGTCACCTAGTGCAG	12700 fluorescence intensity (a.u.)
TGTTTTCCGCGCACACGCATTTATTCTCAAACTCCTAAATCGGAGTCACCTAGTGCAG	8370 fluorescence intensity (a.u.)
GCCATGCCACACATCATGCCACACATTTGCCGTTTTCTTACGGAGTCACCTAGTGCAG	14200 fluorescence intensity (a.u.)
TAATAGTTTTCTCATTTGCGTGCTCGTACTTAATCTTCATCGGAGTCACCTAGTGCAG	10100 fluorescence intensity (a.u.)
TTTCCATTGTTCAGGTAGGGTGGGAATAGGATGTGCTAGACGGAGTCACCTAGTGCAG	10700 fluorescence intensity (a.u.)
TCATTGTCGTTGGACTACACTTATTTTCCCATTTCTATCTCGGAGTCACCTAGTGCAG	10900 fluorescence intensity (a.u.)
TGTGGTTGTGGGAGGTGATTCAATCAGGGGCAAAAGGTGACGGAGTCACCTAGTGCAG	13000 fluorescence intensity (a.u.)
CCACCTCCAACAACAACGGCCTTGTCATTTCCTCTACCGCCGGAGTCACCTAGTGCAG	8570 fluorescence intensity (a.u.)
TCCACCACCCGCCGCACCGCCGGAAATTCCAGGTCCACCGCGGAGTCACCTAGTGCAG	8340 fluorescence intensity (a.u.)
GGGGACATACTTCTCGCAAATGTCTGCGCTACAGTGCTACCGGAGTCACCTAGTGCAG	9150 fluorescence intensity (a.u.)
AGTTTGTTTTTTTTCTGTCCTTGACATGGCCATTTTGTTACGGAGTCACCTAGTGCAG	9920 fluorescence intensity (a.u.)

Reformatted: results already given
Sequence,binding signal
CCGCCTCGAGTCCGTCCGTCGCTTCCTCTCTCTCTACTTGCGGAGTCACCTAGTGCAG,8540 fluorescence intensity (a.u.)
TAGGGTCATGAATTAGATTTGGGTCACTTTTAAGGAAGTCCGGAGTCACCTAGTGCAG,8060 fluorescence intensity (a.u.)
GATTTTGAGTTTTTTTCTTGCAACATTTGACCACTCATCTCGGAGTCACCTAGTGCAG,12700 fluorescence intensity (a.u.)
TGTTTTCCGCGCACACGCATTTATTCTCAAACTCCTAAATCGGAGTCACCTAGTGCAG,8370 fluorescence intensity (a.u.)
GCCATGCCACACATCATGCCACACATTTGCCGTTTTCTTACGGAGTCACCTAGTGCAG,14200 fluorescence intensity (a.u.)
TAATAGTTTTCTCATTTGCGTGCTCGTACTTAATCTTCATCGGAGTCACCTAGTGCAG,10100 fluorescence intensity (a.u.)
TTTCCATTGTTCAGGTAGGGTGGGAATAGGATGTGCTAGACGGAGTCACCTAGTGCAG,10700 fluorescence intensity (a.u.)
TCATTGTCGTTGGACTACACTTATTTTCCCATTTCTATCTCGGAGTCACCTAGTGCAG,10900 fluorescence intensity (a.u.)
TGTGGTTGTGGGAGGTGATTCAATCAGGGGCAAAAGGTGACGGAGTCACCTAGTGCAG,13000 fluorescence intensity (a.u.)
CCACCTCCAACAACAACGGCCTTGTCATTTCCTCTACCGCCGGAGTCACCTAGTGCAG,8570 fluorescence intensity (a.u.)
TCCACCACCCGCCGCACCGCCGGAAATTCCAGGTCCACCGCGGAGTCACCTAGTGCAG,8340 fluorescence intensity (a.u.)
GGGGACATACTTCTCGCAAATGTCTGCGCTACAGTGCTACCGGAGTCACCTAGTGCAG,9150 fluorescence intensity (a.u.)
AGTTTGTTTTTTTTCTGTCCTTGACATGGCCATTTTGTTACGGAGTCACCTAGTGCAG,9920 fluorescence intensity (a.u.)

(next part)

Sequence	binding signal
TTTTAGCTGGCTAATAGCCTGCTATTGTACCGGCTCTTATCGGAGTCACCTAGTGCAG	8680 fluorescence intensity (a.u.)
GTCTTCCTCGCCACCACCATCTGTCAACTGCGACGACATGCGGAGTCACCTAGTGCAG	8700 fluorescence intensity (a.u.)
GTCCACCTCCACCATCCATCCCCTACACTGTCGCGAGCGCCGGAGTCACCTAGTGCAG	10100 fluorescence intensity (a.u.)
CATTGGCTGCTTGATATCGCCTTATATGCGCTCATAATTTCGGAGTCACCTAGTGCAG	11100 fluorescence intensity (a.u.)
TCTCACCGCAGCCTGAGGAATCCATTTTGTCGGTTCTTCTCGGAGTCACCTAGTGCAG	10300 fluorescence intensity (a.u.)
GCGTGTGACGACCGCCCATGCCGCCGCCGTTCCTCCTTTCCGGAGTCACCTAGTGCAG	8490 fluorescence intensity (a.u.)
TTGGTCATTCTGTTTTACCGCACAGGCATTCATTAGACCTCGGAGTCACCTAGTGCAG	8140 fluorescence intensity (a.u.)
AACCACCCAACCCAGCCCAACAATCCCAATCTCTCTCTCTCGGAGTCACCTAGTGCAG	9520 fluorescence intensity (a.u.)
TGAATAGTACTTTACTCGTGACTTATGTTTTTATTTTTTTCGGAGTCACCTAGTGCAG	9810 fluorescence intensity (a.u.)
GACGTGACACTGGAGGAATGGAGGGGTTTTTTTTTTTCTTCGGAGTCACCTAGTGCAG	10700 fluorescence intensity (a.u.)
ATTCTGCTCCGATCTAATCTTCATCTTCGATACTGATATTCGGAGTCACCTAGTGCAG	9470 fluorescence intensity (a.u.)
TGCTCGTACACCACACCTCCACACCTACACGCGCGCGCGCCGGAGTCACCTAGTGCAG	9540 fluorescence intensity (a.u.)
CACCCATCACCTATATATACACATACTTCCCATCGTCTCCCGGAGTCACCTAGTGCAG	8220 fluorescence intensity (a.u.)
CACCTTGTCCCAGTTTGTTATCATTTGAGAAGTTATTTGTCGGAGTCACCTAGTGCAG	10500 fluorescence intensity (a.u.)
CCCTTTTGTCTACCTCCTGCTCGTTTCCACCCCTTTCCTTCGGAGTCACCTAGTGCAG	12800 fluorescence intensity (a.u.)
CGGTTATAGTTCCAGCCATACTGAGGTCTGCTACATGATCCGGAGTCACCTAGTGCAG	8380 fluorescence intensity (a.u.)
CGGCTAGGTTTCATCGCATCCCGCGATCTGTTTCGTCCAGCGGAGTCACCTAGTGCAG	9030 fluorescence intensity (a.u.)
ATGATCTTCCGTTGTATTCATGTTGAAATTATGGTCTTGTCGGAGTCACCTAGTGCAG	8720 fluorescence intensity (a.u.)
GTTGCGCCCGTCTTTGTCTCGTTTGTCTCGAATACTCTCCCGGAGTCACCTAGTGCAG	9790 fluorescence intensity (a.u.)
TCACTCTTCAGTCTTCACCTCGCGGAGGCGCAGTATTCCCCGGAGTCACCTAGTGCAG	8070 fluorescence intensity (a.u.)
AAATACCCGCCCCATCTTCACCCGCAGCTATATAATATCACGGAGTCACCTAGTGCAG	9300 fluorescence intensity (a.u.)
